According to US20070243303, “Methods and Means for Regulating Gene Expression” (Friesland Brands B.V., published 2007):
For part of these data: A weaker result is weaker than the reference pair of the same experiment. Where a protein sequence is shown, tags need not be part of it.

Tests used:
[1] = biological target: T1, CodY (H6-CodY) (Lactococcus lactis subsp. cremoris MG1363) (UniProt A2RHP2); test: EMSA; conditions: purified recombinant protein, label: 32P 5'-end, variant of opp14 WT oppD fragment (154 bp), only the site is given
T1 sequence (looked up, limits assumed): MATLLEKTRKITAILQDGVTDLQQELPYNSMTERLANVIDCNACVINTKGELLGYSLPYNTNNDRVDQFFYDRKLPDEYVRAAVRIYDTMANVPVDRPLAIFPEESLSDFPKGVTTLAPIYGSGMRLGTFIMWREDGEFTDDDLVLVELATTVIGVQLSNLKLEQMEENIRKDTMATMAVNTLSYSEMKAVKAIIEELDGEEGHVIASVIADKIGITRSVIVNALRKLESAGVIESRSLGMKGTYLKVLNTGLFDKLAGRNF

[2] = biological target: T2, CodY (native, in cell) (Lactococcus lactis subsp. cremoris MG1363) (UniProt A2RHP2); test: activity in cells; conditions: lacZ reporter in L. lactis LL108, exponential growth in rich medium; protein in cells; only the site is given; counted as no effect
T2 sequence (looked up, limits assumed): T1 sequence (looked up, limits assumed)

Sequence: AACTGCAGCGTAATATTTAGAAAATTCATGAACATACC (double strand) [opp15(a) mutant oppD fragment (154 bp)]
- binding result ([1]; weaker than WT): binds more weakly

Sequence: AACTGCAGCGTACTGTGCCGAAAATTCATGAACATACC (double strand) [opp15(b) mutant oppD fragment (154 bp)]
- binding result ([1]; hardly any complexes, intermediate complexes absent): binds more weakly

Sequence: AACTGCAGGAAAATTCATGAACATACC (double strand) [oppD probe 1 / opp2 (160 bp, upstream arm removed)]
- activity on this sequence (fold derepression vs WT) [2]: 30
